The values below come from publication PMC7862700.

The chains behind the UniProt entries cited, without tags or fusion partners. Where a name states a change or a piece, a line headed by the entry shows the natural chain unless it says otherwise.
UniProt O43186: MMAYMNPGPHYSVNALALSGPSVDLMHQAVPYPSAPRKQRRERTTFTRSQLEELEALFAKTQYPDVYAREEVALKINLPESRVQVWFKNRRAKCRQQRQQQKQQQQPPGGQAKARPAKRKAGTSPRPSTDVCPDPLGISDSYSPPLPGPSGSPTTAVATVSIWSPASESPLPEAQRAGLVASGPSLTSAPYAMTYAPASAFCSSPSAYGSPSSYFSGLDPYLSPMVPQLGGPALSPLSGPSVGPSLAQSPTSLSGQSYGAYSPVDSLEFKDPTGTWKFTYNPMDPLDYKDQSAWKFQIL

The list shows a part of the results, in another mix than the full data. At the low end of the ranking, values are background and their order means little.

The test deals with CRX (UniProt O43186). Kind of test: DAPPL (digital affinity profiling via proximity ligation, sequencing). Conditions: 10 mM Tris-HCl pH 7.5, 50 mM NaCl, 1 mM DTT, 4% glycerol, room temperature, 30 min; GST-TFs on glutathione beads, 16-mer random dsDNA library, 0.1% …; high values mean tight binding; double strand, one strand shown; scale: fold enrichment (6-mer frequency, TF over GST control).
As for TCTGAT, the binding signal was 1.55.

As for GTCTTT, the binding signal was 1.24.

AATAGC: the binding signal was 1.15.

As for GTACTT, the binding signal stood at 1.6.

For the sequence CTCCGC, the binding signal is 1.3.

For CGTCTA, the binding signal was determined as 1.28.

Consider AAAGAC, for which the binding signal was 1.13.

For the sequence TGTAAT, the binding signal stood at 1.79.

As for GACCTC, the binding signal worked out at 0.999.

With GTATTA, the binding signal turned out to be 2.49.

In turn, GATCCT displayed a binding signal of 1.66.

CCCCCG: the binding signal was determined as 0.921.

TTTACT gave a binding signal of 1.95.

In turn, TAACTC gave a binding signal of 1.58.

Take ACTGGC: the binding signal was 0.966.

On to CGACAC, for which the binding signal is 0.789.

For GATTAC, the binding signal was found to be 3.27.

For CTTGAC, the binding signal was found to be 0.978.

Sequence CTGGCC had a binding signal of 0.902.

Sequence CTGCTA returned a binding signal of 1.36.

Take CGTTCA: the binding signal stood at 0.968.

On to CCGTCC, for which the binding signal was found to be 0.901.

Turning to TATAAG, the binding signal was found to be 2.08.

Take CGAAGC: the binding signal was 1.19.

CACTCT displayed a binding signal of 1.08.

For the sequence GCCTAT, the binding signal was 1.3.

TGGTAC showed a binding signal of 0.88.

For the sequence CCCCAT, the binding signal was found to be 1.15.

On to CGGCTT, for which the binding signal came out at 1.95.

For the sequence ACATCA, the binding signal came out at 0.909.

Sequence ACGGCC came in with a binding signal of 0.828.

The sequence AACACA gave a binding signal of 1.1.

In the case of TGCCCG, the binding signal came out at 0.94.

In the case of AACAGC, the binding signal was determined as 0.962.

TAACGA: the binding signal turned out to be 1.57.

AATACA had a binding signal of 1.33.

In the case of GTTCAT, the binding signal worked out at 0.967.

Regarding CTGGAC, the binding signal is 0.973.

TTAAAG yielded a binding signal of 2.66.

For TGTTCA, the binding signal was determined as 0.919.
